Results taken from paper PMC4694698.
These are yes or no findings as the source states them, for the method shown. In cells and extracts the contact can be indirect. Some entries that bind do so weakly or less than the wild type.

T1: VE-cadherin (Vascular Endothelial-cadherin) (human (endogenous in HUVEC)) (UniProt P33151)
T1 sequence: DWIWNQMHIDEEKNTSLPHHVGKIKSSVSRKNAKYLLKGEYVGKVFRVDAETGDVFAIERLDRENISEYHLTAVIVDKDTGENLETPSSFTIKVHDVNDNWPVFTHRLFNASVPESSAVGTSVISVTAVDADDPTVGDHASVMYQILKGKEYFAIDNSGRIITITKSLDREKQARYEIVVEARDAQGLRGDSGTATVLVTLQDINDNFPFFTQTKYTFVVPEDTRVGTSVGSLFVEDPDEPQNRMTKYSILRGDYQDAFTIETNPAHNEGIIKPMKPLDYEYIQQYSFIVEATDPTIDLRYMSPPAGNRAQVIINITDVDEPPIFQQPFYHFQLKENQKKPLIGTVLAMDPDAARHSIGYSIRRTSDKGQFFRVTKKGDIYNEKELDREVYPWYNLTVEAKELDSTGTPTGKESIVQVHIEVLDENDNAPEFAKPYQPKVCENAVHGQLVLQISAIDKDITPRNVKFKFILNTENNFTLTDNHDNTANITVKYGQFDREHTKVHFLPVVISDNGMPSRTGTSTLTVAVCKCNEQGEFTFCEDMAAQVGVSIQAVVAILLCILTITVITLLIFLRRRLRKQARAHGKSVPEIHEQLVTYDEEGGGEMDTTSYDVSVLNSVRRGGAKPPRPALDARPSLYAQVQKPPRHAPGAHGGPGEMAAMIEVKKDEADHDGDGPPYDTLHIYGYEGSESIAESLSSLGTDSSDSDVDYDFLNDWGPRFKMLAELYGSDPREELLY

T2: VE-cadherin (Vascular Endothelial-cadherin) (human (endogenous in HUVEC)), P33151
T2 chain: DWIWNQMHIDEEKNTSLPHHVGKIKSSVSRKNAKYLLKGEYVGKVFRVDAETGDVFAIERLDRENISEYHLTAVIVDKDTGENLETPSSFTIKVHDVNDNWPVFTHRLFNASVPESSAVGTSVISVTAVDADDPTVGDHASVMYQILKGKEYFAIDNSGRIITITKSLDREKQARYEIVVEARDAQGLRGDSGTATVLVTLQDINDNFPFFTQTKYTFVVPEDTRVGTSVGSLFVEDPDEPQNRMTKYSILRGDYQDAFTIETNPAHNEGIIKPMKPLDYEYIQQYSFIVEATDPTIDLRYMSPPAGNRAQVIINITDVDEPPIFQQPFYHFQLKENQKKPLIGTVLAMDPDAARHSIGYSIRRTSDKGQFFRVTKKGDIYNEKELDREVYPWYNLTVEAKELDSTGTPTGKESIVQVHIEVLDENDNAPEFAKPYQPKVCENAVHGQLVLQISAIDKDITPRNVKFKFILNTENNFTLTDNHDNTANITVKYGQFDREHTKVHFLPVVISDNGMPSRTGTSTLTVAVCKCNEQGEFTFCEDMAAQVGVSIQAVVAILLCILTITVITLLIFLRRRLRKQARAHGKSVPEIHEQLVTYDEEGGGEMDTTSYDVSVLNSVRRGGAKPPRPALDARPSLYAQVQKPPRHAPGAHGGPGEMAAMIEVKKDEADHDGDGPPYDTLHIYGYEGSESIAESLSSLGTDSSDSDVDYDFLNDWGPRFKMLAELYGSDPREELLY


What was measured:
[1] = biological target: T1, VE-cadherin (Vascular Endothelial-cadherin) (human (endogenous in HUVEC)); experiment: co-IP; HUVEC treated with PAI-039 (25 μM) or solvent (DMSO 0.1%) for four hours; NP-40 lysis buffer (25 mM Tris, 100 mM NaCl, 10 mM MgCl2, 10% glycerol, 1% Nonidet P-40, pH 7.4); lysate incubated with 2 μg mouse monoclonal VE-cadherin antibody and protein G-sepharose at 4°C; five washes; western blot
VE-cadherin (Vascular …) = biological target: T2, VE-cadherin (Vascular …); experiment: as above; details: remark: other sources report otherwise

| binding [1] | binding (VE-cadherin (Vascular …)) | Binder |
| --- | --- | --- |
| binds |  | p120 catenin (protein, UniProt O60716 1-968) MDDSEVESTASILASVKEQEAQFEKLTRALEEERRHVSAQLERVRVSPQDANPLMANGTLTRRHQNGRFVGDADLERQKFSDLKLNGPQDHSHLLYSTIPRMQEPGQIVETYTEEDPEGAMSVVSVETSDDGTTRRTETTVKKVVKTVTTRTVQPVAMGPDGLPVDASSVSNNYIQTLGRDFRKNGNGGPGPYVGQAGTATLPRNFHYPPDGYSRHYEDGYPGGSDNYGSLSRVTRIEERYRPSMEGYRAPSRQDVYGPQPQVRVGGSSVDLHRFHPEPYGLEDDQRSMGYDDLDYGMMSDYGTARRTGTPSDPRRRLRSYEDMIGEEVPSDQYYWAPLAQHERGSLASLDSLRKGGPPPPNWRQPELPEVIAMLGFRLDAVKSNAAAYLQHLCYRNDKVKTDVRKLKGIPVLVGLLDHPKKEVHLGACGALKNISFGRDQDNKIAIKNCDGVPALVRLLRKARDMDLTEVITGTLWNLSSHDSIKMEIVDHALHALTDEVIIPHSGWEREPNEDCKPRHIEWESVLTNTAGCLRNVSSERSEARRKLRECDGLVDALIFIVQAEIGQKDSDSKLVENCVCLLRNLSYQVHREIPQAERYQEAAPNVANNTGPHAASCFGAKKGKDEWFSRGKKPIEDPANDTVDFPKRTSPARGYELLFQPEVVRIYISLLKESKTPAILEASAGAIQNLCAGRWTYGRYIRSALRQEKALSAIADLLTNEHERVVKAASGALRNLAVDARNKELIGKHAIPNLVKNLPGGQQNSSWNFSEDTVISILNTINEVIAENLEAAKKLRETQGIEKLVLINKSGNRSEKEVRAAALVLQTIWGYKELRKPLEKEGWKKSDFQVNLNNASRSQSSHSYDDSTLPLIDRNQKSDKKPDREEIQMSNMGSNTKSLDNNYSTPNERGDHNRTLDRSGDLGDMEPLKGTTPLMQDEGQESLEEELDVLVLDDEGGQVSYPSMQKI |
|  | binds | β-catenin, P35222 1-781 (protein) MATQADLMELDMAMEPDRKAAVSHWQQQSYLDSGIHSGATTTAPSLSGKGNPEEEDVDTSQVLYEWEQGFSQSFTQEQVADIDGQYAMTRAQRVRAAMFPETLDEGMQIPSTQFDAAHPTNVQRLAEPSQMLKHAVVNLINYQDDAELATRAIPELTKLLNDEDQVVVNKAAVMVHQLSKKEASRHAIMRSPQMVSAIVRTMQNTNDVETARCTAGTLHNLSHHREGLLAIFKSGGIPALVKMLGSPVDSVLFYAITTLHNLLLHQEGAKMAVRLAGGLQKMVALLNKTNVKFLAITTDCLQILAYGNQESKLIILASGGPQALVNIMRTYTYEKLLWTTSRVLKVLSVCSSNKPAIVEAGGMQALGLHLTDPSQRLVQNCLWTLRNLSDAATKQEGMEGLLGTLVQLLGSDDINVVTCAAGILSNLTCNNYKNKMMVCQVGGIEALVRTVLRAGDREDITEPAICALRHLTSRHQEAEMAQNAVRLHYGLPVVVKLLHPPSHWPLIKATVGLIRNLALCPANHAPLREQGAIPRLVQLLVRAHQDTQRRTSMGGTQQQFVEGVRMEEIVEGCTGALHILARDVHNRIVIRGLNTIPLFVQLLYSPIENIQRVAAGVLCELAQDKEAAEAIEAEGATAPLTELLHSRNEGVATYAAAVLFRMSEDKPQDYKKRLSVELTSSLFRTEPMAWNETADLGLDIGAQGEPLGYRQDDPSYRSFHSGGYGQDALGMDPMMEHEMGGHHPGADYPVDGLPDLGHAQDLMDGLPPGDSNQLAWFDTDL |
